In experiment [1] the target is PINK1 (mouse (endogenous in nigra)) (UniProt Q99MQ3). The experiment is described as follows: co-IP; endogenous proteins in nigral extracts of Non-Tg and A53T-Tg mice (n = 3/group); IP of BPOZ-2 then IB of PINK1, and IP of PINK1 then IB of BPOZ-2; IgG IP as negative control.
Experiment [2] addresses Ankyrin-rich BTB/POZ domain containing protein-2 (mouse (endogenous in nigra)) (UniProt Q7TQI7). Described as above.

No constants are given. Whether binding was seen depends on the method and setting. Binding seen in cells or lysates may run through a third protein. Some results given as binding are weak or reduced against the parent protein; the word gives no strength.

As to “Ankyrin-rich BTB/POZ domain containing protein-2 (from UniProt Q7TQI7 1-1024)”, in experiment [1], the binding entry was “binds”.

On to PINK1 (from UniProt Q99MQ3 78-580), for which the binding entry in experiment [2] is recorded as “binds”.

The values above are taken from publication PMC4768134.
